Assay results as given in PMC11605229.

B1: ASNS (protein, UniProt P08243 1-561)
chain: MCGIWALFGSDDCLSVQCLSAMKIAHRGPDAFRFENVNGYTNCCFGFHRLAVVDPLFGMQPIRVKKYPYLWLCYNGEIYNHKKMQQHFEFEYQTKVDGEIILHLYDKGGIEQTICMLDGVFAFVLLDTANKKVFLGRDTYGVRPLFKAMTEDGFLAVCSEAKGLVTLKHSATPFLKVEPFLPGHYEVLDLKPNGKVASVEMVKYHHCRDVPLHALYDNVEKLFPGFEIETVKNNLRILFNNAVKKRLMTDRRIGCLLSGGLDSSLVAATLLKQLKEAQVQYPLQTFAIGMEDSPDLLAARKVADHIGSEHYEVLFNSEEGIQALDEVIFSLETYDITTVRASVGMYLISKYIRKNTDSVVIFSGEGSDELTQGYIYFHKAPSPEKAEEESERLLRELYLFDVLRADRTTAAHGLELRVPFLDHRFSSYYLSLPPEMRIPKNGIEKHLLRETFEDSNLIPKEILWRPKEAFSDGITSVKNSWFKILQEYVEHQVDDAMMANAAQKFPFNTPKTKEGYYYRQVFERHYPGRADWLSHYWMPKWINATDPSARTLTHYKSAVKA
B2: KIF23 (protein, UniProt Q02241 1-960)
chain: MKSARAKTPRKPTVKKGSQTNLKDPVGVYCRVRPLGFPDQECCIEVINNTTVQLHTPEGYRLNRNGDYKETQYSFKQVFGTHTTQKELFDVVANPLVNDLIHGKNGLLFTYGVTGSGKTHTMTGSPGEGGLLPRCLDMIFNSIGSFQAKRYVFKSNDRNSMDIQCEVDALLERQKREAMPNPKTSSSKRQVDPEFADMITVQEFCKAEEVDEDSVYGVFVSYIEIYNNYIYDLLEEVPFDPIKPKPPQSKLLREDKNHNMYVAGCTEVEVKSTEEAFEVFWRGQKKRRIANTHLNRESSRSHSVFNIKLVQAPLDADGDNVLQEKEQITISQLSLVDLAGSERTNRTRAEGNRLREAGNINQSLMTLRTCMDVLRENQMYGTNKMVPYRDSKLTHLFKNYFDGEGKVRMIVCVNPKAEDYEENLQVMRFAEVTQEVEVARPVDKAICGLTPGRRYRNQPRGPVGNEPLVTDVVLQSFPPLPSCEILDINDEQTLPRLIEALEKRHNLRQMMIDEFNKQSNAFKALLQEFDNAVLSKENHMQGKLNEKEKMISGQKLEIERLEKKNKTLEYKIEILEKTTTIYEEDKRNLQQELETQNQKLQRQFSDKRRLEARLQGMVTETTMKWEKECERRVAAKQLEMQNKLWVKDEKLKQLKAIVTEPKTEKPERPSRERDREKVTQRSVSPSPVPLSSNYIAQISNGQQLMSQPQLHRRSNSCSSISVASCISEWEQKIPTYNTPLKVTSIARRRQQEPGQSKTCIVSDRRRGMYWTEGREVVPTFRNEIEIEEDHCGRLLFQPDQNAPPIRLRHRRSRSAGDRWVDHKPASNMQTETVMQPHVPHAITVSVANEKALAKCEKYMLTHQELASDGEIETKLIKGDIYKTRGGGQSVQFTDIETLKQESPNGSRKRRSSTVAPAQPDGAESEWTDVETRCSVAVEMRAGSQLGPGYQHHAQPKRKKP
B3: HEBP1 (protein, UniProt Q9NRV9 1-189)
chain: MLGMIKNSLFGSVETWPWQVLSKGDKEEVAYEERACEGGKFATVEVTDKPVDEALREAMPKVAKYAGGTNDKGIGMGMTVPISFAVFPNEDGSLQKKLKVWFRIPNQFQSDPPAPSDKSVKIEEREGITVYSMQFGGYAKEADYVAQATRLRAALEGTATYRGDIYFCTGYDPPMKPYGRRNEIWLLKT
B4: MAP3K7 (protein, UniProt O43318 1-606)
chain: MSTASAASSSSSSSAGEMIEAPSQVLNFEEIDYKEIEVEEVVGRGAFGVVCKAKWRAKDVAIKQIESESERKAFIVELRQLSRVNHPNIVKLYGACLNPVCLVMEYAEGGSLYNVLHGAEPLPYYTAAHAMSWCLQCSQGVAYLHSMQPKALIHRDLKPPNLLLVAGGTVLKICDFGTACDIQTHMTNNKGSAAWMAPEVFEGSNYSEKCDVFSWGIILWEVITRRKPFDEIGGPAFRIMWAVHNGTRPPLIKNLPKPIESLMTRCWSKDPSQRPSMEEIVKIMTHLMRYFPGADEPLQYPCQYSDEGQSNSATSTGSFMDIASTNTSNKSDTNMEQVPATNDTIKRLESKLLKNQAKQQSESGRLSLGASRGSSVESLPPTSEGKRMSADMSEIEARIAATTAYSKPKRGHRKTASFGNILDVPEIVISGNGQPRRRSIQDLTVTGTEPGQVSSRSSSPSVRMITTSGPTSEKPTRSHPWTPDDSTDTNGSDNSIPMAYLTLDHQLQPLAPCPNSKESMAVFEQHCKMAQEYMKVQTEIALLLQRKQELVAELDQDEKDQQNTSRLVQEHKKLLDENKSLSTYYQQCKKQLEVIRSQQQKRQGTS

target: BioID-BAG3 (UniProt O95817); test: proximity labelling; BioID in human AC16 cardiomyocyte cells: transfected with plasmid expressing BioID-BAG3 for 48 h, biotin for 16 h; LC-MS/MS; BAG3_Biotin vs. BioID vector only, adjusted p < 0.05; effect sizes corrected for biotin alone and for BAG3 over-expression; three replicates

Row | binding | Binder
1 | binds | B1
2 | binds | B2
3 | binds | B3
4 | binds | B4

These are yes or no findings as the source states them, for the method shown. In cells and extracts the contact can be indirect. Here binding means that the protein was enriched with, or labelled near, the bait; the list need not be complete.
